From patent US20170306346A1
These are yes or no findings as the source states them, for the method shown. Binding seen in cells or lysates may run through a third protein. Some entries that bind do so weakly or less than the wild type. Sequences can lack the tags named with a protein.

The chains behind the UniProt entries cited, without tags or fusion partners.
UniProt Q39204: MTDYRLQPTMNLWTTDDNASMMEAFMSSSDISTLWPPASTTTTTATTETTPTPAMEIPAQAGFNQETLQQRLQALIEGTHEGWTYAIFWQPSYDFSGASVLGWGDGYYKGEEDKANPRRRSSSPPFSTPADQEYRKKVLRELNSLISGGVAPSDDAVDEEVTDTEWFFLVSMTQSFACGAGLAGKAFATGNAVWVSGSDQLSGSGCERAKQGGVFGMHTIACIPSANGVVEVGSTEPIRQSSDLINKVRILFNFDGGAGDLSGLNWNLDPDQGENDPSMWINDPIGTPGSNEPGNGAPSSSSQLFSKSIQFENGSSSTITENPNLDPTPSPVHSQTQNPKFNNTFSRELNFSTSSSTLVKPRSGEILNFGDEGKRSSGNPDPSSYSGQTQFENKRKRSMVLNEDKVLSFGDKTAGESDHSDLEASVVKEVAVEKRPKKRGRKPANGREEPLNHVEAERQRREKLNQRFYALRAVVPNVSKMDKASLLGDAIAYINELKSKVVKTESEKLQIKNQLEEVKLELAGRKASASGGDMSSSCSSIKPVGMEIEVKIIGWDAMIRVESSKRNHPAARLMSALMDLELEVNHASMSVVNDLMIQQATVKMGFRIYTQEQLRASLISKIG

Key:
[1] = target: GST-AtUBC2 (Arabidopsis) [GST: P08515]; test: in vitro pull-down, MBP-PUB11 with GST-AtUBC2
[2] = target: GST-AtUBC8 (Arabidopsis) [GST: P08515]; test: in vitro pull-down, MBP-PUB11 with GST-AtUBC8
[3] = target: T1, GST-AtUBC31 (Arabidopsis) (UniProt Q9C8X7); test: in vitro pull-down, MBP-PUB11 with GST-AtUBC31
T1 sequence: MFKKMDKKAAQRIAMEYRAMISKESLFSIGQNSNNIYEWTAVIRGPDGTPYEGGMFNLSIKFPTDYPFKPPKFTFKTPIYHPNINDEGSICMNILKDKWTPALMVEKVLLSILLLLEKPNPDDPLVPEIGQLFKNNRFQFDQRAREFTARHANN

[4] = target: GST-AtUBC36 (Arabidopsis) [GST: P08515]; test: in vitro pull-down, MBP-PUB11 with GST-AtUBC36
[5] = target: GST-MYC2-HA (Arabidopsis thaliana) (UniProt Q39204); test: in vitro pull-down, MBP-PUB11 bait, GST-MYC2 prey, anti-GST Western blot
[6] = target: GST-AtUBC2 (Arabidopsis) [GST: P08515]; test: in vitro pull-down, MBP-PUB11 with GST-AtUBC2, anti-MBP antibody (FIG. 9)
[7] = target: GST-AtUBC8 (Arabidopsis) [GST: P08515]; test: in vitro pull-down, MBP-PUB11 with GST-AtUBC8, anti-MBP antibody (FIG. 9)
[8] = target: T1, GST-AtUBC31 (Arabidopsis); test: in vitro pull-down, MBP-PUB11 with GST-AtUBC31, anti-MBP antibody (FIG. 9)
[9] = target: GST-AtUBC36 (Arabidopsis) [GST: P08515]; test: in vitro pull-down, MBP-PUB11 with GST-AtUBC36, anti-MBP antibody (FIG. 9)
[10] = target: GST-MYC2-HA (Arabidopsis thaliana) (UniProt Q39204); test: in vitro pull-down, MBP-PUB11 bait, GST-MYC2 prey, anti-GST antibody (FIG. 7B)

Measured: binding

B1: MBP-PUB11-myc (enzyme, not shown: large carriers; small tags and cut ends)
chain: MAGGIVSPASLLDLIADIVEIPLNTGMFKKDCADLTRRVCLLTHLLEEIRDSTPIDSAASSSSENDWWSDLVVGLQAAKRLLSTARFQARDSSDGAAKRISFQFQCVTWKLEKALSNLPYDLYDISDEVGEQVELARSQLRRAMQRYGSLNSNKFSSALSEPMERDGFSNVIKIKAEEKLESVSETLHFGEEEEKQSSPPLRRSSSISLAYYLSKDADTDRLDKMVNKNTDESKKSDKLTIPVDFLCPVSLELMKDPVIVATGQTYERAYIQRWIDCGNLTCPKTQQKLENFTLTPNYVLRSLISRWCAEHNIEQPAGYINGRTKNSGDMSVIRALVQRLSSRSTEDRRNAVSEIRSLSKRSTDNRILIAEAGAIPVLVNLLTSEDVATQENAITCVLNLSIYENNKELIMFAGAVTSIVQVLRAGTMEARENAAATLFSLSLADENKIIIGGSGAIPALVDLLENGTPRGKKDAATALFNLCIYHGNKGRAVRAGIVTALVKMLSDSTRHRMVDEALTILSVLANNQDAKSAIVKANTLPALIGILQTDQTRNRENAAAILLSLCKRDTEKLITIGRLGAVVPLMDLSKNGTERGKRKAISLLELLRKACQ
binds: all assays above
